Laboratory results as given in patent US8158172B2, “Fermented food products containing probiotics strains, and method for preparing same” (Compagnie Gervais Danone, priority 2006, dated 2012).

Assay: Sensory analysis for undesirable sulphur-type taste

In the case of N[C@@H](CS)C(=O)O [cysteine, L-cysteine], the organoleptic response (12 mg/l of cysteine) is reported as “no detectable difference”, the “sensory analysis, undesirable taste in comparison with the standard” value (15 mg/l of filtered cysteine) is reported as “do not have a detectable undesirable taste” and the “added cysteine concentration as from which an undesirable taste (sulphur note) can be detected” value (milk models of Example 2) is reported as at least 0.002%.
